± gives the standard deviation of the averaged measurements. Values are relative to the signal before dosing, not to a vehicle control; the signal also falls without drug.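 Fibroblast labels denote human fibroblasts, mainly primary ones from uterus (C12385, HUF), lung (H6013), bone (Hs27A), adrenal (HADF) and skin (WS1), plus mammary HMF and breast cancer-associated Hs343T. Cancer cells are basal-like or mesenchymal-like triple-negative breast cancer lines. A hit is a response shift exceeding 3x replicate standard deviation. The tissue of the other fibroblasts is not given here.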
Test system: BT20
Test: relative JC-1 red fluorescence (viability) vs pre-drug, coculture with fibroblast (fraction); higher = more viable cancer cells
Method: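 JC-1 labelled TNBC cells cocultured 1:1 (1,500 cells each) with CellTrace Violet stained primary or stromal fibroblasts in 384-well plates in FluoroBrite medium, treated with one of 42 anticancer drugs at 0.1, 1, 10 or 100 uM. JC-1 red fluorescence (mitochondrial integrity in cancer cells only) was read by plate reader every 8 h for 72 h. Values are normalised to each well's pre-drug value. The stock of one drug was tenfold lower, so its dose labels may be too high.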

N#Cc1ccc(C(c2ccc(C#N)cc2)n2cncn2)cc1 [Letrozole]
relative JC-1 red fluorescence
Settings	8 h	16 h	24 h	32 h	40 h	48 h	56 h	64 h	72 h
0.1 µM, coculture fibroblast: C12385	0.923 ± 0.024	0.816 ± 0.022	0.7745 ± 0.0043	0.709 ± 0.012	0.648 ± 0.02	0.613 ± 0.027	0.582 ± 0.023	0.561 ± 0.011	0.545 ± 0.0073
0.1 µM, coculture fibroblast: H6013	0.9168 ± 0.0047	0.855 ± 0.025	0.797 ± 0.02	0.76 ± 0.026	0.709 ± 0.037	0.679 ± 0.032	0.671 ± 0.041	0.646 ± 0.045	0.623 ± 0.044
0.1 µM, coculture fibroblast: H6019	0.844 ± 0.021	0.787 ± 0.016	0.768 ± 0.021	0.713 ± 0.015	0.67 ± 0.014	0.65 ± 0.013	0.621 ± 0.014	0.6 ± 0.025	0.586 ± 0.015
0.1 µM, coculture fibroblast: H6076	0.976 ± 0.02	0.881 ± 0.034	0.803 ± 0.024	0.785 ± 0.022	0.752 ± 0.025	0.732 ± 0.021	0.721 ± 0.028	0.716 ± 0.026	0.697 ± 0.023
0.1 µM, coculture fibroblast: H6231	0.834 ± 0.1	0.926 ± 0.017	0.7869 ± 0.0027	0.722 ± 0.0014	0.684 ± 0.015	0.6304 ± 0.005	0.5945 ± 0.0014	0.5639 ± 0.0038	0.539 ± 0.012
0.1 µM, coculture fibroblast: HADF	0.937 ± 0.081	0.887 ± 0.00097	0.834 ± 0.029	0.797 ± 0.013	0.759 ± 0.019	0.721 ± 0.022	0.7 ± 0.032	0.694 ± 0.037	0.658 ± 0.05
0.1 µM, coculture fibroblast: HCFa	0.91 ± 0.013	0.867 ± 0.04	0.818 ± 0.053	0.759 ± 0.057	0.715 ± 0.058	0.674 ± 0.065	0.644 ± 0.079	0.614 ± 0.073	0.582 ± 0.08
0.1 µM, coculture fibroblast: HCPF	0.9926 ± 0.0096	0.877 ± 0.015	0.795 ± 0.025	0.737 ± 0.017	0.685 ± 0.0094	0.643 ± 0.018	0.602 ± 0.035	0.592 ± 0.032	0.558 ± 0.035
0.1 µM, coculture fibroblast: HHSteC	0.941 ± 0.031	0.85 ± 0.056	0.817 ± 0.06	0.735 ± 0.053	0.68 ± 0.05	0.639 ± 0.04	0.612 ± 0.028	0.585 ± 0.03	0.564 ± 0.029
0.1 µM, coculture fibroblast: HMF	0.9 ± 0.1	0.882 ± 0.012	0.757 ± 0.0086	0.6938 ± 0.002	0.6422 ± 0.0012	0.588 ± 0.016	0.543 ± 0.027	0.508 ± 0.024	0.472 ± 0.026
0.1 µM, coculture fibroblast: HPFa	0.937 ± 0.025	0.811 ± 0.06	0.797 ± 0.064	0.702 ± 0.067	0.67 ± 0.078	0.62 ± 0.08	0.592 ± 0.079	0.554 ± 0.077	0.5 ± 0.064
0.1 µM, coculture fibroblast: HUF	0.925 ± 0.023	0.802 ± 0.02	0.767 ± 0.034	0.682 ± 0.04	0.616 ± 0.06	0.563 ± 0.062	0.534 ± 0.066	0.512 ± 0.075	0.492 ± 0.079
0.1 µM, coculture fibroblast: Hs5	0.893 ± 0.14	0.916 ± 0.026	0.824 ± 0.0096	0.764 ± 0.013	0.706 ± 0.021	0.657 ± 0.036	0.612 ± 0.036	0.576 ± 0.036	0.54 ± 0.04
0.1 µM, coculture fibroblast: Hs27A	0.807 ± 0.066	0.786 ± 0.097	0.882 ± 0.01	0.887 ± 0.013	0.8385 ± 0.0036	0.812 ± 0.015	0.787 ± 0.031	0.751 ± 0.027	0.701 ± 0.028
0.1 µM, coculture fibroblast: Hs343T	0.918 ± 0.076	0.875 ± 0.021	0.743 ± 0.01	0.6789 ± 0.001	0.615 ± 0.0073	0.57 ± 0.011	0.529 ± 0.01	0.504 ± 0.02	0.475 ± 0.021
0.1 µM, coculture fibroblast: WS1	0.868 ± 0.012	0.762 ± 0.02	0.716 ± 0.033	0.65 ± 0.032	0.587 ± 0.041	0.555 ± 0.039	0.527 ± 0.04	0.505 ± 0.04	0.491 ± 0.034
1 µM, coculture fibroblast: C12385	0.9 ± 0.015	0.794 ± 0.0095	0.743 ± 0.0087	0.687 ± 0.016	0.627 ± 0.02	0.59 ± 0.012	0.552 ± 0.014	0.534 ± 0.016	0.519 ± 0.012
1 µM, coculture fibroblast: H6013	0.9485 ± 0.0012	0.866 ± 0.022	0.82682 ± 5e-06	0.7867 ± 0.0043	0.73246 ± 0.0002	0.711 ± 0.0044	0.6992 ± 0.0051	0.6831 ± 0.0055	0.6637 ± 0.0058
1 µM, coculture fibroblast: H6019	0.869 ± 0.036	0.816 ± 0.083	0.816 ± 0.12	0.774 ± 0.15	0.741 ± 0.16	0.726 ± 0.17	0.696 ± 0.18	0.68 ± 0.2	0.661 ± 0.2
1 µM, coculture fibroblast: H6076	0.875 ± 0.17	0.906 ± 0.034	0.837 ± 0.013	0.791 ± 0.026	0.752 ± 0.031	0.729 ± 0.027	0.702 ± 0.012	0.7 ± 0.017	0.68 ± 0.0092
1 µM, coculture fibroblast: H6231	0.872 ± 0.084	0.906 ± 0.025	0.801 ± 0.023	0.727 ± 0.017	0.662 ± 0.011	0.6107 ± 0.0023	0.577 ± 0.014	0.55 ± 0.028	0.504 ± 0.036
1 µM, coculture fibroblast: HADF	0.9953 ± 0.0066	0.913 ± 0.023	0.894 ± 0.02	0.854 ± 0.034	0.821 ± 0.032	0.787 ± 0.042	0.77 ± 0.037	0.762 ± 0.029	0.735 ± 0.029
1 µM, coculture fibroblast: HCFa	0.961 ± 0.013	0.914 ± 0.02	0.913 ± 0.026	0.875 ± 0.031	0.839 ± 0.049	0.807 ± 0.059	0.794 ± 0.076	0.787 ± 0.092	0.77 ± 0.11
1 µM, coculture fibroblast: HCPF	0.84 ± 0.081	0.8943 ± 0.0033	0.8138 ± 0.0073	0.765 ± 0.013	0.718 ± 0.011	0.672 ± 0.013	0.622 ± 0.017	0.602 ± 0.012	0.553 ± 0.0056
1 µM, coculture fibroblast: HHSteC	0.92 ± 0.03	0.834 ± 0.025	0.813 ± 0.024	0.735 ± 0.015	0.67941 ± 0.00054	0.6461 ± 0.0037	0.6219 ± 0.0039	0.6027 ± 0.0024	0.57052 ± 0.00018
1 µM, coculture fibroblast: HMF	0.866 ± 0.027	0.887 ± 0.029	0.782 ± 0.063	0.733 ± 0.053	0.691 ± 0.056	0.645 ± 0.07	0.607 ± 0.069	0.573 ± 0.071	0.545 ± 0.08
1 µM, coculture fibroblast: HPFa	0.9458 ± 0.0056	0.851 ± 0.012	0.838 ± 0.032	0.747 ± 0.032	0.714 ± 0.044	0.666 ± 0.043	0.64 ± 0.051	0.606 ± 0.054	0.548 ± 0.049
1 µM, coculture fibroblast: HUF	0.901 ± 0.01	0.7677 ± 0.0015	0.746 ± 0.024	0.671 ± 0.027	0.615 ± 0.033	0.574 ± 0.034	0.557 ± 0.038	0.537 ± 0.041	0.526 ± 0.043
1 µM, coculture fibroblast: Hs5	0.949 ± 0.051	0.8944 ± 0.00098	0.83 ± 0.022	0.794 ± 0.027	0.756 ± 0.018	0.718 ± 0.021	0.688 ± 0.021	0.658 ± 0.02	0.622 ± 0.02
1 µM, coculture fibroblast: Hs27A	0.802 ± 0.14	0.907 ± 0.075	0.896 ± 0.041	0.877 ± 0.055	0.84 ± 0.073	0.826 ± 0.084	0.805 ± 0.086	0.78 ± 0.082	0.729 ± 0.069
1 µM, coculture fibroblast: Hs343T	0.896 ± 0.14	0.8563 ± 0.0012	0.715 ± 0.029	0.64 ± 0.028	0.569 ± 0.029	0.509 ± 0.027	0.439 ± 0.02	0.413 ± 0.017	0.372 ± 0.014
1 µM, coculture fibroblast: WS1	0.8612 ± 0.0037	0.7683 ± 0.0011	0.731 ± 0.013	0.659 ± 0.012	0.599 ± 0.018	0.579 ± 0.026	0.548 ± 0.048	0.521 ± 0.063	0.513 ± 0.069

Reference: the supplement of paper PMC6078165
